Data source: PubChem BioAssay AID504786 (Drosophila RNAi Screening Center, 2011)
In all, the deposit lists about 21,000 reagents; this is an unselected part of those with a known target gene and a result. 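Primary screen; positive scores mean lost reporter signal, so the sign may be inverted from the usual convention.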 Reagents against one gene are numbered here.

- Assay: 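Fly genes required for HIF-dependent transcription when hypoxia is mimicked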 (primary screen)
- Cell system: Drosophila S2 cells with a stable HIF luciferase reporter
- Reagents: long dsRNA against Drosophila genes, about 0.2 µg dsRNA per well of a 384-well plate
- Duration: three days of knock-down, then 20 h of DFO before reading
- Treatment: desferrioxamine (DFO) at 100 µM, an iron chelator that mimics hypoxia, for 20 h
- Measurement: 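Firefly luciferase driven by the mouse ldh-a hypoxia-response element, measured after 20 h of 100 µM DFO; z-scores per plate, higher means more signal lost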
- Reading the numbers: z-score: higher = stronger loss of HIF reporter signal

no.	gene	reagent no.	z-score, replicate 1	z-score, replicate 2	z-score, replicate 3	z-score, replicate 4
1	CG11878	1	0	0.2		
2	cbt	1	-0.3	-0.2		
3	CG11110	1	0.1	-0.4		
4	Rtf1	1	3.4	3.8		
5	CG32945	1	-0.1	0		
6	kl-5 (retired record)	1	-0.1	0.4		
7	kl-5 (retired record)	2	0.2	0.1		
8	kl-5 (retired record)	3	-0.2	-0.2		
9	kl-5 (retired record)	4	0	0		
10	CG1513	1	-0.3	-0.3		
11	CG1513	2	-0.5	-0.4		
12	CG1513	3	-0.3	-0.4		
13	Ugt36A1	1	-0.4	-0.6		
14	CG7702	1	-0.1	-0.2		
15	CG14861	1	-0.2	0.4		
16	CG17732	1	-0.2	-0.2		
17	Dredd	1	-0.2	-0.3		
18	kek4	1	-0.2	-0.3		
19	CG34309	1	-0.4	-0.5		
20	CG6304	1	-0.1	0.2		
21	CG13482	1	-0.3	-0.1		
22	Irk3	1	-0.2	-0.3		
23	Polr2F	1	4.6	5.5		
24	CG9393	1	-0.3	-0.5		
25	mthl4	1	-0.2	-0.6		
26	CG10984	1	-0.1	-0.4		
27	mRpL4	1	1.4	1		
28	ttk	1	-0.3	0.1		
29	ttk	2	2.1	0.8		
30	CG9997	1	0	-0.3		
31	CG31098	1	-0.4	-0.6		
32	CG9380	1	-0.2	0.1		
33	CG11449	1	-0.3	-0.3		
34	fus	1	0	0.3		
35	fus	2	-0.3	-0.1		
36	dsf	1	-0.3	0		
37	Tengl4	1	-0.3	-0.3		
38	lft	1	0	-0.1		
39	CG13970	1	0	0		
40	CG5194	1	-0.3	-0.6		
41	CG33170	1	-0.3	-0.1		
42	CysRS	1	-0.3	-0.5	-0.7	-0.3
43	Stoml2	1	0.2	0.2		
44	CG34248	1	0.1	-0.1		
45	gas	1	-0.3	-0.2		
46	AMPdeam	1	-0.5	-0.5		
47	AMPdeam	2	-0.2	-0.1		
48	AMPdeam	3	-0.3	-0.3		
49	AMPdeam	4	0	-0.9		
50	LIMK1	1	-0.2	-0.4		
51	Stt3B	1	-0.1	0.7		
52	Gli	1	0.3	-0.6		
53	Nrd1	1	-0.3	-0.6		
54	CG30440	1	-0.4	0		
55	CG30440	2	-0.4	-0.2		
56	CG30440	3	-0.4	0		

3 neighbouring entries from above, for reference:
no.	gene	reagent no.	z-score, replicate 1	z-score, replicate 2	z-score, replicate 3	z-score, replicate 4
53	Nrd1	1	-0.3	-0.6		
54	CG30440	1	-0.4	0		
55	CG30440	2	-0.4	-0.2		
